No constants are given. Whether binding was seen depends on the method and setting. In cells and extracts the contact can be indirect. Some entries that bind do so weakly or less than the wild type.

Amino acid sequences for entries named in this document (tags omitted).
UniProt P23526: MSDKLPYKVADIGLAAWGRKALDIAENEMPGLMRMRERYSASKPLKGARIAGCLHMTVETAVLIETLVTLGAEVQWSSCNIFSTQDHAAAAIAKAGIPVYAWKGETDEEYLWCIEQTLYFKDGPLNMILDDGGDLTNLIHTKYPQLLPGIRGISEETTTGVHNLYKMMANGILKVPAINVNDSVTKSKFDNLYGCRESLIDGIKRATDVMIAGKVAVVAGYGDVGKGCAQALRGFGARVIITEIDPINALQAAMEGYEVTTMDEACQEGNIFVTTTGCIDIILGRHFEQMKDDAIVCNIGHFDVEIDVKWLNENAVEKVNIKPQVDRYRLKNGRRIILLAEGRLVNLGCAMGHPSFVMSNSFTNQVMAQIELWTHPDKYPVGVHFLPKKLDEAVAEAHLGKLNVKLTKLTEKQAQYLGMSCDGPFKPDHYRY
UniProt Q96HN2: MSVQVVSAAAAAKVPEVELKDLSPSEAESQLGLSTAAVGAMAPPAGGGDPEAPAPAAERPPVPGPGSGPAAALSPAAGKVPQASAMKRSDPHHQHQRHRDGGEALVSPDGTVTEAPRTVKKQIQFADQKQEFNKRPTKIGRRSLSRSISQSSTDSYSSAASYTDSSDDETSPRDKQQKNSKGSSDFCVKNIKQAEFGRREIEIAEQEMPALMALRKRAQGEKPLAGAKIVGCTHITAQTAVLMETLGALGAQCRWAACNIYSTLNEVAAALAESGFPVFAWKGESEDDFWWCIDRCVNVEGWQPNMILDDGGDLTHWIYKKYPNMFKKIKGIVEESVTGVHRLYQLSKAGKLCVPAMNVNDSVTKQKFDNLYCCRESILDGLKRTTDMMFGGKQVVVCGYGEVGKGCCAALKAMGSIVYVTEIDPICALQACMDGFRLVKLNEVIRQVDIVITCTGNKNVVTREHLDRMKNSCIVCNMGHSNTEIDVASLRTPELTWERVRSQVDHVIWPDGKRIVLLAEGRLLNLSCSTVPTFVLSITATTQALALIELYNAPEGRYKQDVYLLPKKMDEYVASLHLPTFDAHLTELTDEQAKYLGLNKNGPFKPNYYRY

We go through one substance from PMC7060199.

For this assay, the target named is SAHH-HA (UniProt P23526). Nature of the assay: co-IP; HEK293T stably expressing AHCYL-Flag and SAHH-HA, control, DJ-1-flag overexpression or DJ-1 KD; anti-HA magnetic beads, 4 h at 4 C; immunoblot with anti-Flag and anti-HA. Background: In western blotting, separated proteins are transferred to a membrane and probed.

In the case of AHCYL2-Flag (from UniProt Q96HN2 1-611), the binding result was “binds”.
